# Assay results: the supplement of paper PMC12819154, “High-throughput peptide-centric local stability assay extends protein–ligand identification to membrane proteins, tissues and bacteria” (Nature Structural & Molecular Biology, 2025)
# Protein sequences, listed by entry. Tags and fused reporters are not part of them. Lines headed by an entry give the natural chain unless they say otherwise; changes in a name come on top.
# UniProt Q9Y5Y0: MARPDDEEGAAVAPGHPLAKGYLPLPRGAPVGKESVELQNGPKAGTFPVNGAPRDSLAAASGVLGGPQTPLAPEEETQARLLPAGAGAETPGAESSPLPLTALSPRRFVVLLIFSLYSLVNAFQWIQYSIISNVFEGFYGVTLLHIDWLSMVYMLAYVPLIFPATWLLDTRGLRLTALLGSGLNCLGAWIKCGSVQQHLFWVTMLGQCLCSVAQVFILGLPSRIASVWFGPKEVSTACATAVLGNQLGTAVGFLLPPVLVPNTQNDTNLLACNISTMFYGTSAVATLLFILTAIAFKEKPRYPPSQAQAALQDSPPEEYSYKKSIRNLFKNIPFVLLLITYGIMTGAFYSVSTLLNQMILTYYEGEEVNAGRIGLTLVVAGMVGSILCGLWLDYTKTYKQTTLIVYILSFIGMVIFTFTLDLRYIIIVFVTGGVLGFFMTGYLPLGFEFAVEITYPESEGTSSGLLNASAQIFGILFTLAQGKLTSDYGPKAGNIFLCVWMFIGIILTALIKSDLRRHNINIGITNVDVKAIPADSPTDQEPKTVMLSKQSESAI
# UniProt Q9Y5Q8: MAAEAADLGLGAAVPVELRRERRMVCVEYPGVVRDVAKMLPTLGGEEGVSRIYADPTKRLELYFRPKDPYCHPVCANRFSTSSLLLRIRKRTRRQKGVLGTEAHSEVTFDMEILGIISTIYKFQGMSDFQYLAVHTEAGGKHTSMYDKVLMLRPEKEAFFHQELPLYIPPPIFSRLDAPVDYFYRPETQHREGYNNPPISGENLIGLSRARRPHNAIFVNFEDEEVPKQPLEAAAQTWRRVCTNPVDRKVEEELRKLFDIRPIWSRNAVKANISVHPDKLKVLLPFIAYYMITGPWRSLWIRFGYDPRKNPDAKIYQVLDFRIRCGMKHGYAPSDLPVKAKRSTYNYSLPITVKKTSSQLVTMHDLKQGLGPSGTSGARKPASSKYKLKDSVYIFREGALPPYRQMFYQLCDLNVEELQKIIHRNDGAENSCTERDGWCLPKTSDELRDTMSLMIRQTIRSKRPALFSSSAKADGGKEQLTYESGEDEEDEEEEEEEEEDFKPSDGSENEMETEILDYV
# UniProt Q9Y446: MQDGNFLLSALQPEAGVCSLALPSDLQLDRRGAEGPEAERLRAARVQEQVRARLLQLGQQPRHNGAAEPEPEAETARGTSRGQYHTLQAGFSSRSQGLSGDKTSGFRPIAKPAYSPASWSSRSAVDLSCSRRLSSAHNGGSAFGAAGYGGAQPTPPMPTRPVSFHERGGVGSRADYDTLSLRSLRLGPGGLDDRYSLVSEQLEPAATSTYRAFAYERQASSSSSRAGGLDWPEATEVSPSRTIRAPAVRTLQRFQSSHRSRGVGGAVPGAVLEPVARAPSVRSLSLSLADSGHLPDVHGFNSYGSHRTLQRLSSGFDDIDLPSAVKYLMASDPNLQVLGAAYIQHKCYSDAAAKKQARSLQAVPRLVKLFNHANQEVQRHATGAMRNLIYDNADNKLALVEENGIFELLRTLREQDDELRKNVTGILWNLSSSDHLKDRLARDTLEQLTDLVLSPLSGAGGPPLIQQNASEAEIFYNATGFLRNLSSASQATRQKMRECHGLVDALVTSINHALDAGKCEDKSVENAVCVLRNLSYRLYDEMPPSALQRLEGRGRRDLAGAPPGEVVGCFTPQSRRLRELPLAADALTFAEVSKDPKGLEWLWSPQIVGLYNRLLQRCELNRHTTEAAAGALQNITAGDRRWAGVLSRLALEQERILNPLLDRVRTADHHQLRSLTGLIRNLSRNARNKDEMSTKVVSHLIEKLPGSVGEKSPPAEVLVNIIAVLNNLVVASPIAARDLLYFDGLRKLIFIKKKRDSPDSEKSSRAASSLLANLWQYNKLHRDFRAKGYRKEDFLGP
# UniProt Q9Y4B6: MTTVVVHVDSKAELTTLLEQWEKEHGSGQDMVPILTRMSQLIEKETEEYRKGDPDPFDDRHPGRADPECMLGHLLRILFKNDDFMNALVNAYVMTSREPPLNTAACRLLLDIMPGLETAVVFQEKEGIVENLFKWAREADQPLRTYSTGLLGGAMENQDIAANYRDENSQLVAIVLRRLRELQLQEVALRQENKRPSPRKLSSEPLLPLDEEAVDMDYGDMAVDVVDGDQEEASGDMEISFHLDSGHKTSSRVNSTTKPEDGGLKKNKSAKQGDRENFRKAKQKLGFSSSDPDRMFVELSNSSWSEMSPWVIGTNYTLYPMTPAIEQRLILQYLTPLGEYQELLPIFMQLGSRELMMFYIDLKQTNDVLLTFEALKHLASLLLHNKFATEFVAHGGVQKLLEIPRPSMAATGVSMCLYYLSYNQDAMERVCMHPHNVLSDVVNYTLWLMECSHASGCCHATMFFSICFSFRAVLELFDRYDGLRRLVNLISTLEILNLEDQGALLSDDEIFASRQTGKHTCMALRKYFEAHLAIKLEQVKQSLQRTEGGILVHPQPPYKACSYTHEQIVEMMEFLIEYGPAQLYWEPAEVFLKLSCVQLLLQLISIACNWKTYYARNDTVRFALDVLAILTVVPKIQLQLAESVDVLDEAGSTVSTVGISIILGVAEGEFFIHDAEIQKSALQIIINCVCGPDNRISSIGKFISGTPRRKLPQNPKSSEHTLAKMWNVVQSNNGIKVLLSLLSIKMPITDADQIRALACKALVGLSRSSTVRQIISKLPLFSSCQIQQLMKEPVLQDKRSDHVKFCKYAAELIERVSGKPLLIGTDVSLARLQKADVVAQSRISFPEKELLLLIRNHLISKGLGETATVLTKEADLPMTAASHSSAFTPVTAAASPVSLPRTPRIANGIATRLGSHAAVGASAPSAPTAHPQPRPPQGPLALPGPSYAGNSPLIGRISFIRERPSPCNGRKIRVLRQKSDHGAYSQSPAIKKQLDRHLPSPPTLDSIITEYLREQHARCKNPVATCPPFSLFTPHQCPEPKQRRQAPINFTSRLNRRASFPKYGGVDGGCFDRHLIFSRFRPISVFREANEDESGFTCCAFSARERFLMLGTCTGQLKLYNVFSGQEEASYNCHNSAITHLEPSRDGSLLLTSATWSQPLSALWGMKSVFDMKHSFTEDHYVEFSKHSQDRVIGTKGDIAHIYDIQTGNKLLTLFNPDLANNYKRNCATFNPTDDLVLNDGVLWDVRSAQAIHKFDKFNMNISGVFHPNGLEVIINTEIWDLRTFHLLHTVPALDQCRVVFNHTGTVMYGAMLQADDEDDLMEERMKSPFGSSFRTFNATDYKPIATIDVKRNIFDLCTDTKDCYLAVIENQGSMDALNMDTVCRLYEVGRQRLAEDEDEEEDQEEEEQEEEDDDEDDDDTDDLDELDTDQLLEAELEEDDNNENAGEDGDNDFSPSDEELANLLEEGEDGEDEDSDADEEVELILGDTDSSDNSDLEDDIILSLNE
# UniProt Q9Y5M8: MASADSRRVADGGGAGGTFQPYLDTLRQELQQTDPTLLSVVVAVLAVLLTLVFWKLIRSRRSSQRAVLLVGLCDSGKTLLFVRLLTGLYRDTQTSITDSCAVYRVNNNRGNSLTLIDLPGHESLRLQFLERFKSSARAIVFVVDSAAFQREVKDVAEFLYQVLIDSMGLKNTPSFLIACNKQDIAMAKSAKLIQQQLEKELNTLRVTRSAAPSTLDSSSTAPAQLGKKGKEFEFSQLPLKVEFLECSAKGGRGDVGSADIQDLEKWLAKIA
# UniProt Q9Y2K7: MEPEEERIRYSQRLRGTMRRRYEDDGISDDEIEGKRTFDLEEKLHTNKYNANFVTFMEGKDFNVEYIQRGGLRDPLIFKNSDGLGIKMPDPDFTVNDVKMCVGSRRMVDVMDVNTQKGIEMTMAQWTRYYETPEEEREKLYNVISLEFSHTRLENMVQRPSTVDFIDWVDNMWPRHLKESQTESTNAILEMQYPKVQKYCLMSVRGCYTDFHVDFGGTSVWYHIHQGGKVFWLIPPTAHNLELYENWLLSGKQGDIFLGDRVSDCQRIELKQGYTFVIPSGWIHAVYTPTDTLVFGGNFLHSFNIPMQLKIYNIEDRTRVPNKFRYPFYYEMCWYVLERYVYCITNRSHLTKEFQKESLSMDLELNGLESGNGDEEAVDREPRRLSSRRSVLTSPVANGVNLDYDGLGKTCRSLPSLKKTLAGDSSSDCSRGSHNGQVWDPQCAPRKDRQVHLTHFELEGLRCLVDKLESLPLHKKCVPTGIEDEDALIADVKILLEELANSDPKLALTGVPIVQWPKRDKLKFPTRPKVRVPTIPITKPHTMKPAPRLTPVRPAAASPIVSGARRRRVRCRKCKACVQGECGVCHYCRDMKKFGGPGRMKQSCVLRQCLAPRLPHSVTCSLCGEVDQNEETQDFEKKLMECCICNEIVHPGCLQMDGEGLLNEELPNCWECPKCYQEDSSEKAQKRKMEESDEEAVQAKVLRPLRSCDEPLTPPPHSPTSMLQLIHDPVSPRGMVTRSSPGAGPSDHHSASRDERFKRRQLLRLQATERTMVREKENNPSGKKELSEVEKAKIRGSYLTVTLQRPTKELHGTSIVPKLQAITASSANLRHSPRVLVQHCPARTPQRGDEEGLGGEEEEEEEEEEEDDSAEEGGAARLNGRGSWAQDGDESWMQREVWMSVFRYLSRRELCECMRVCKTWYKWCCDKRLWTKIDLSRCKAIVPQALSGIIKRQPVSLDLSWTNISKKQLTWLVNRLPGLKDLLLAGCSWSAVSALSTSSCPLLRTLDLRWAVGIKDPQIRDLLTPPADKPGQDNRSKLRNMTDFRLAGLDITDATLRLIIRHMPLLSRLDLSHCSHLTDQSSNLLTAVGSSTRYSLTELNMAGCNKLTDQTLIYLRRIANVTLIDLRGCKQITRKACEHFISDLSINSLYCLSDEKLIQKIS
# UniProt Q9Y5J9: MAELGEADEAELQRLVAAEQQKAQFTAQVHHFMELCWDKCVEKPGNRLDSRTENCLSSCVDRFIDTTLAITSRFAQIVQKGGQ
# UniProt Q9Y296, whole entry: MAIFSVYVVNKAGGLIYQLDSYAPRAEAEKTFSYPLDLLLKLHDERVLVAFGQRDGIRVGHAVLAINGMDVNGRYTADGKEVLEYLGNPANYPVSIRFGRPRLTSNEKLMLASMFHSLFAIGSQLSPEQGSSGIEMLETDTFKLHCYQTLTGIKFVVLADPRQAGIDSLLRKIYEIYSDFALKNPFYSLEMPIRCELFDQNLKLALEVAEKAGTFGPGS
# UniProt Q9Y3I1: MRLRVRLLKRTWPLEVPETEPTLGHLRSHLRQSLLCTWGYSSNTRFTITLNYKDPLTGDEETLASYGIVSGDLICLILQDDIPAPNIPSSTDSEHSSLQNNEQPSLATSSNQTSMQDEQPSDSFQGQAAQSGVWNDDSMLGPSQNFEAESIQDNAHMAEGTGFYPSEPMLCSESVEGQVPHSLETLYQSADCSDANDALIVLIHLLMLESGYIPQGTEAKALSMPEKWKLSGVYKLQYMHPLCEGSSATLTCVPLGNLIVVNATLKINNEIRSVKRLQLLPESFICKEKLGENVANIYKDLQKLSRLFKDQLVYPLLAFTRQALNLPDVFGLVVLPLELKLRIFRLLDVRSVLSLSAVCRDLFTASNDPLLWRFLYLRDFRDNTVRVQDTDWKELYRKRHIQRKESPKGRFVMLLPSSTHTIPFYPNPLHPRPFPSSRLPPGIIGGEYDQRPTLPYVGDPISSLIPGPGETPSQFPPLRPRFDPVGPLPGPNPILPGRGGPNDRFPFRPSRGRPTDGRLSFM
# UniProt Q9Y2X3: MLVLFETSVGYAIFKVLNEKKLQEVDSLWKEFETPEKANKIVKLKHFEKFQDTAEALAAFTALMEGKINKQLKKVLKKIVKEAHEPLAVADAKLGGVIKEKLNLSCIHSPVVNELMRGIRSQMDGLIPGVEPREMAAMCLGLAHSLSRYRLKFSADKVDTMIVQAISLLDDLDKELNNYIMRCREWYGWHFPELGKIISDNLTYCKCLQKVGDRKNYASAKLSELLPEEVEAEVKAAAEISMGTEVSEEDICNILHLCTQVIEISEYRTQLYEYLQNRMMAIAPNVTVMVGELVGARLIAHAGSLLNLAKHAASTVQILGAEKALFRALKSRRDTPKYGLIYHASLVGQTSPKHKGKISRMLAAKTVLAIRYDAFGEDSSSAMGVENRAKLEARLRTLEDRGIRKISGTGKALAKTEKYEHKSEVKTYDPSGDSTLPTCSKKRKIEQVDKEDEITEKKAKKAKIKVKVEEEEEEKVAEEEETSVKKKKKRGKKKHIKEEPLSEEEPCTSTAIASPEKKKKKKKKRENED
# UniProt Q9Y2U9: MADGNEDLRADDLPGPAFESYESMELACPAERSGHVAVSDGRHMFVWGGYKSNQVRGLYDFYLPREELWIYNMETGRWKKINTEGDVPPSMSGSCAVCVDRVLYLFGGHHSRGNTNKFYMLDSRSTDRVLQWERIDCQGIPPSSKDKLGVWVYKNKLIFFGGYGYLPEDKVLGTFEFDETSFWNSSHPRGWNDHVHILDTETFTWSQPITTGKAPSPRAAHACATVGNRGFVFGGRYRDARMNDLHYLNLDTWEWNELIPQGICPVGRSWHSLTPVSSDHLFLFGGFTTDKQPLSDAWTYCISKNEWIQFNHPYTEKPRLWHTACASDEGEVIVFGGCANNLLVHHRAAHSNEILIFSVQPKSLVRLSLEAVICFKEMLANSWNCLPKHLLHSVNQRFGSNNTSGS
# The other results are listed elsewhere or left out. Small differences around the control level are noise.
# Compound: Cc1nc(Nc2ncc(C(=O)Nc3c(C)cccc3Cl)s2)cc(N2CCN(CCO)CC2)n1 [dasatinib]
# Test: log2 fold change of tryptic peptide abundance, ligand vs vehicle (limited proteolysis) (log2 ratio); higher = more trypsin-susceptible (destabilized)
# Settings: ligand concentration: 5 uM; sample: K562 cleared lysate
row,Target,log2 fold change
1,"FLVCR1 (peptide sequence: ARPDDEEGAAVAPGHPLAK, peptide start residue: 2) (UniProt Q9Y5Y0)",-0.254
2,"INPP5F (peptide sequence: VNFLKPNLK, peptide start residue: 813) (UniProt Q9Y2H2)",0.454
3,"COG6 (peptide sequence: YTLDEFGTARR, peptide start residue: 264) (UniProt Q9Y2V7)",-0.368
4,"PPME1 (peptide sequence: LLLLAGVDRLDKDLTIGQMQGK, peptide start residue: 317) (UniProt Q9Y570)",0.725
5,"GTF3C5 (peptide sequence: LKDSVYIFR, peptide start residue: 388) (UniProt Q9Y5Q8)",-0.148
6,"REXO2 (peptide sequence: FLDKYMPQFMK, peptide start residue: 150) (UniProt Q9Y3B8)",0.135
7,"CPQ (peptide sequence: LALLVDTVGPR, peptide start residue: 67) (UniProt Q9Y646)",-0.155
8,"PRSS21 (peptide sequence: LWDSHVCGVSLLSHR, peptide start residue: 61) (UniProt Q9Y6M0)",-0.274
9,"RBM19 (peptide sequence: AETEKPANQKEPTTCHTVK, peptide start residue: 279) (UniProt Q9Y4C8)",0.815
10,"MRPS28 (peptide sequence: HSPLTQMGPAK, peptide start residue: 86) (UniProt Q9Y2Q9)",-0.106
11,"PKP3 (peptide sequence: GAEGPEAER, peptide start residue: 32) (UniProt Q9Y446)",-0.301
12,"TIMM13 (peptide sequence: CIGKPGGSLDNSEQK, peptide start residue: 50) (UniProt Q9Y5L4)",-0.225
13,"SUGT1 (peptide sequence: SLELNPNNSTAMLRK, peptide start residue: 71) (UniProt Q9Y2Z0)",-0.202
14,"UniProt Q9Y4B6 (peptide sequence: ELQLQEVALR, peptide start residue: 181)",-0.274
15,"SRPRB (peptide sequence: SAAPSTLDSSSTAPAQLGKK, peptide start residue: 209) (UniProt Q9Y5M8)",0.0952
16,"UniProt Q9Y2K7 (peptide sequence: SSPGAGPSDHHSASRDER, peptide start residue: 739)",0.821
17,"MAGED1 (peptide sequence: GPNGVYDFSQAHNAK, peptide start residue: 87) (UniProt Q9Y5V3)",-0.157
18,"TIMM8B (peptide sequence: FIDTTLAITSR, peptide start residue: 63) (UniProt Q9Y5J9)",0.0238
19,"NCOA3 (peptide sequence: SSMRPGFEDIIR, peptide start residue: 287) (UniProt Q9Y6Q9)",-0.228
20,"POLDIP2 (peptide sequence: IPPFSLESNKDEK, peptide start residue: 348) (UniProt Q9Y2S7)",-0.404
21,"PRKAB1 (peptide sequence: FRAPPILPPHLLQVILNK, peptide start residue: 200) (UniProt Q9Y478)",0.17
22,"TRAPPC4 (peptide sequence: FVVLADPR, peptide start residue: 155) (UniProt Q9Y296)",0.29
23,"UniProt Q9Y6X3 (peptide sequence: FLRETLK, peptide start residue: 481)",-0.22
24,"STRAP (peptide sequence: EISGHTSGIKK, peptide start residue: 138) (UniProt Q9Y3F4)",0.83
25,"FBXO7 (peptide sequence: LGENVANIYK, peptide start residue: 290) (UniProt Q9Y3I1)",-0.206
26,"NOP58 (peptide sequence: IVKEAHEPLAVADAK, peptide start residue: 79) (UniProt Q9Y2X3)",0.892
27,"KLHDC2 (peptide sequence: FYMLDSR, peptide start residue: 118) (UniProt Q9Y2U9)",0.349
28,"UniProt Q9Y520 (peptide sequence: MPPPANLPSLKAENK, peptide start residue: 54)",0.392

# Look-ups from the results shown:
# KLHDC2 (peptide sequence: FYMLDSR, peptide start residue: 118) (UniProt Q9Y2U9) | log2 fold change: 0.349
# CPQ (peptide sequence: LALLVDTVGPR, peptide start residue: 67) (UniProt Q9Y646) | log2 fold change: -0.155
